Data: patent US5723464A, “Piperazine derivatives” (American Home Products Corporation, priority 1994, dated 1998)
At least one compound was matched to its structure with a doubt left.

Legend:
5-HT1A receptor [1] = target: T1, 5-HT1A receptor (Rattus norvegicus, UniProt P19327); experiment: 5-HT1A receptor binding affinity in rat hippocampal membrane homogenate; set-up: in rat hippocampal membrane homogenate; from tissue; host or cells: rat hippocampal membrane homogenate; conditions: for 5-HT1A/α1 selectivity (in words): binding affinity at 5-HT1A compared to α1 receptors
T1 sequence (P19327 1-422): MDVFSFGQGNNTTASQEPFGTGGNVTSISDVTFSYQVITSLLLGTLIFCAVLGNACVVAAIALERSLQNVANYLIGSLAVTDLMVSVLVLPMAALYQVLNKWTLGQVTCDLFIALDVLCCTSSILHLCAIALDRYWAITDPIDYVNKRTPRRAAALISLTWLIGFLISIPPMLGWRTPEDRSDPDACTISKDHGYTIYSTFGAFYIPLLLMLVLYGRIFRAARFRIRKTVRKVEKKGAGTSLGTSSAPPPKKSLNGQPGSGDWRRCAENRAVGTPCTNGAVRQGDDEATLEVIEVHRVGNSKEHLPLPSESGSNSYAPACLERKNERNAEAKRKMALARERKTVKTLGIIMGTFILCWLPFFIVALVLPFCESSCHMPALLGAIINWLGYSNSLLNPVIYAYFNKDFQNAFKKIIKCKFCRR
Description: The compounds were tested for 5-HT1A binding affinity (column 2) in rat hippocampal membrane homogenate by the method of B. S. Alexander and M. D. Wood, J. Pharm. Pharmacol., 1988, 40, 888-891.

α1 receptor = α1 receptor binding affinity
Description: The compounds were tested for α1 binding affinity (column 3) by the procedure of A. L. Marrow et al, Mol. Pharmacol., 1986, 29, 321.

5-HT1A receptor [2] = target: T1, 5-HT1A receptor; experiment: Oral 5-HT1A receptor antagonist activity: antagonism of 8-OH-DPAT syndrome in rats; type: in vivo; conditions: for 5-HT1A antagonist Ratio (ED50 antagonist @ 3mg/kg po)/ED50 vehicle: ED50 of 8-OH-DPAT (i.v.) after test compound 3 mg/kg p.o. divided by ED50 after vehicle; for 5-HT1A antagonist Ratio (ED50 antagonist @ 3mg/kg po)/ED50 vehicle / 5-HT1A antagonist activity MED: rats; for 5-HT1A antagonist oral activity (in words): compared to compounds of EP-A-512755; for 5-HT1A antagonist activity MED: po, 60 min before i.v. 8-OH-DPAT, lowest dose at which ED50 confidence limits do not overlap vehicle
Description: 5-HT1A receptor antagonist activity (columns 5 and 6) is assessed by the ability of the selective 5-HT1A receptor agonist, 8-OH-DPAT, to induce the `8-OH-DPAT syndrome` in rats characterised by extended flat body posture, forepaw treading and hyperlocomotion. The 8-OH-DPAT syndrome is scored as present (definite syndrome response) or absent (equivocal or no syndrome response) during the period 0-5 min following intravenous (i.v.) administration of the test agonist via a lateral tail vein.
A range of doses, on a logarithmic scale and encompassing the expected ED50, were chosen for the test agonist following preliminary evaluation. The first animal received a dose of the test agonist approximating the expected ED50. […] This procedure was repeated for a minimum of 10 animals, with animals being tested sequentially.
Test antagonists were administered orally (p.o.) 60 min, before i.v. administration of 8-OH-DPAT. ED50 values for 8-OH-DPAT were determined for the different pretreatment groups using the sequential up/down procedure as described above.
The response to the selective 5-HT1A receptor agonist, 8-OH-DPAT, is represented as an ED50 value for induction of the 8-OH-DPAT syndrome, which is determined using the sequential up/down analysis following intravenous administration. 5-HT1A antagonist activity is determined by the ability of the test compound to antagonise the response to 8-OH-DPAT, i.e. to increase the ED50 for induction of the 8-OH-DPAT syndrome compared with vehicle pretreatment. The ratios represent the ED50 value for 8-OH-DPAT following pretreatment with the test compound at 3 mg/kg p.o. (ED50 antagonist) divided by the ED50 value for 8-OH-DPAT following pretreatment with vehicle (ED50 vehicle).
i.e. ratio=(ED50 antagonist @ 3 mg/kg p.o.)/(ED50 vehicle)
By calculating the ratio for all compounds at the same dose, i.e. 3 mg/kg p.o., a direct comparison can be made as to their effect at that dose.

Row | SMILES | 5-HT1A binding affinity (in words) (5-HT1A receptor [1]) | 5-HT1A/α1 selectivity (in words) (5-HT1A receptor [1]) | IC50 (α1 receptor) | 5-HT1A antagonist Ratio (ED50 antagonist @ 3mg/kg po)/ED50 vehicle (5-HT1A receptor [2]) | 5-HT1A antagonist oral activity (in words) (5-HT1A receptor [2]) | 5-HT1A antagonist activity MED (5-HT1A receptor [2])
1 | C[C@H](CN(C(=O)C1CCCCC1)c1ccccn1)N1CCN(c2cccc3[nH]ccc23)CC1 [Compound A2, (R)-N-(2-methyl-2-(4-indolyl-1-piperazinyl)ethyl)-N-(2-pyridyl)-cyclohexanecarboxamide] | good 5-HT1A binding affinity | good | 969 nM | 23.4 | surprising increase in oral activity as 5-HT1A antagonists | 0.3 mg/kg
2 | C[C@H](CN1CCN(c2cccc3[nH]ccc23)CC1)N(C(=O)C1CCCCC1)c1ccccn1 [Compound A1, (R)-N-(1-methyl-2-(4-indolyl-1-piperazinyl)ethyl)-N-(2-pyridyl)-cyclohexanecarboxamide] | good 5-HT1A binding affinity | good | 2430 nM | 33.5 | surprising increase in oral activity as 5-HT1A antagonists | 0.3 mg/kg
